Assay results from paper PMC1334198.

Molecular target: FCH domain of RhoGAP4 (human)
Assay: pull-down; GST-tagged RhoGAP4 domain incubated with HL-60 lysate, eluted with glutathione, blotted for Hem-1; only the target purified

binding: no binding
B1: hematopoietic protein 1 (Hem-1) (protein, UniProt P55160 1-1127)
chain: MSLTSAYQHKLAEKLTILNDRGQGVLIRMYNIKKTCSDPKSKPPFLLEKSMEPSLKYINKKFPNIDVRNSTQHLGPVHREKAEIIRFLTNYYQSFVDVMEFRDHVYELLNTIDACQCHFDINLNFDFTRSYLDLIVTYTSVILLLSRIEDRRILIGMYNCAHEMLHGHGDPSFARLGQMVLEYDHPLKKLTEEFGPHTKAVSGALLSLHFLFVRRNQGAEQWRSAQLLSLISNPPAMINPANSDTMACEYLSVEVMERWIIIGFLLCHGCLNSNSQCQKLWKLCLQGSLYITLIREDVLQVHKVTEDLFSSLKGYGKRVADIKESKEHVIANSGQFHCQRRQFLRMAVKELETVLADEPGLLGPKALFAFMALSFIRDEVTWLVRHTENVTKTKTPEDYADSSIAELLFLLEGIRSLVRRHIKVIQQYHLQYLARFDALVLSDIIQNLSVCPEEESIIMSSFVSILSSLNLKQVDNGEKFEFSGLRLDWFRLQAYTSVAKAPLHLHENPDLAKVMNLIVFHSRMLDSVEKLLVETSDLSTFCFHLRIFEKMFAMTLEESAMLRYAIAFPLICAHFVHCTHEMCPEEYPHLKNHGLHHCNSFLEELAKQTSNCVLEICAEQRNLSEQLLPKHCATTISKAKNKKTRKQRQTPRKGEPERDKPGAESHRKNRSIVTNMDKLHLNLTELALTMNHVYSFSVFEHTIFPSEYLSSHLEARLNRAIVWLAGYNATTQEIVRPSELLAGVKAYIGFIQSLAQFLGADASRVIRNALLQQTQPLDSCGEQTITTLYTNWYLESLLRQASSGTIILSPAMQAFVSLPREGEQNFSAEEFSDISEMRALAELLGPYGMKFLSENLMWHVTSQIVELKKLVVENMDILVQIRSNFSKPDLMASLLPQLTGAENVLKRMTIIGVILSFRAMAQEGLREVFSSHCPFLMGPIECLKEFVTPDTDIKVTLSIFELASAAGVGCDIDPALVAAIANLKADTSSPEEEYKVACLLLIFLAVSLPLLATDPSSFYSIEKDGYNNNIHCLTKAIIQVSAALFTLYNKNIETHLKEFLVVASVSLLQLGQETDKLKTRNRESISLLMRLVVEESSFLTLDMLESCFPYVLLRNAYREVSRAFHLN

No constants are given. Whether binding was seen depends on the method and setting. Binding seen in cells or lysates may run through a third protein.
